Some results were stated once for a whole list of compounds, not compound by compound.
Assay: Enzyme reactivity to prodrugs before and after attachment to colloidal gold (UV/Vis, NADH oxidation at 340 nm, hydroxylamine formation at 420 nm)
Type: biochemical
Details: compared to the same concentration of enzyme free in solution; CB1954; molar ratio 87:1 enzymes:gold; listed as immobilised NfnB
Protocol: The ability of the different nitroreductases to metabolise the selected prodrugs is assessed as the conversion of NADH to NAD^+ by UV-vis spectra. The kinetic parameters of the purified enzymes are measured by UV-vis spectra before and after their attachment to gold particles based on their ability to use NADH or an alternative cofactor such as for example nicotinic acid riboside for the reduction of the prodrugs.
For these experiments, a 300 molar equivalents of enzyme were incubated with gold colloid, as this appeared to be the minimum amount of enzyme to cover the gold nanoparticle surface as determined by UV/Vis spectrometry, electrophoresis, and stability experiments. 3.206 nmol of the NfnB and cys-NfnB enzymes in ultra pure water were incubated with 1.5 ml 20 nm Naked Gold® (7.125×10^−3 μM) at a temperature of 4° C. overnight. […] The absorbance spectra (750 nm-200 nm) were recorded every 1.5 min for 20 min upon the addition of 10 μl CB 1954 (10 mM) or 20 μl SN 23862 (5 mM) to the test sample, and an equivalent volume of dimethyl sulfoxide (DMSO) to the reference solution. The oxidation of NADH, measured as the decrease at 340 nm, was used as an indication of reactivity of the enzyme for the substrate. […]
The formation of hydroxylamine products was monitored at 420 nm using UV/Vis spectroscopy in the presence of enzyme and excess NADH as previously described. […]

B1: NfnB (bound to gold): recombinant NfnB nitroreductase immobilised onto 20 nm gold colloid (conjugate, UniProt P38489 1-217, looked up)
Oxygen-insensitive NAD(P)H …: MDIISVALKRHSTKAFDASKKLTPEQAEQIKTLLQYSPSSTNSQPWHFIVASTEEGKARVAKSAAGNYVFNERKMLDASHVVVFCAKTAMDDVWLKLVVDQEDADGRFATPEAKAANDKGRKFFADMHRKDLHDDAEWMAKQVYLNVGNFLLGVAALGLDAVPIEGFDAAILDAEFGLKEKGYTSLVVVPVGHHSVEDFNATLPKSRLPQNITLTEV
modifications: immobilised on gold colloid
notes: recombinant NfnB nitroreductase immobilised onto 20 nm gold colloid
- Retained activity (%): more than 99%
